Results from PMC10315267.
No constants are given. Whether binding was seen depends on the method and setting. In cells and extracts the contact can be indirect. Here binding means that the protein was enriched with, or labelled near, the bait; the list need not be complete. A no says only that the protein was not detected with the bait.

Target: T1, REVEILLE 8 (RVE8)-HFC (Arabidopsis thaliana) (UniProt Q8RWU3)
T1 sequence: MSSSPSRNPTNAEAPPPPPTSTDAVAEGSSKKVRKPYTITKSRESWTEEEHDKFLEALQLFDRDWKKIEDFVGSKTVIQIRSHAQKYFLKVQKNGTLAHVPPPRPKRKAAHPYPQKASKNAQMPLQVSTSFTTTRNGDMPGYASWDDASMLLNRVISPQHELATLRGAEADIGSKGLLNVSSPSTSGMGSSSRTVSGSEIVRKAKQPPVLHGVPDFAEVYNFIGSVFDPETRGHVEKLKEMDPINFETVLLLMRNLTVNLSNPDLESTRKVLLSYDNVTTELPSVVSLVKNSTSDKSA
Assay: affinity purification with mass spectrometry; HFC-tagged bait (RVE8-, LNK1- or LNK2-HFC) from extracts of 10-d-old Arabidopsis seedlings (12 h light:12 h dark, 22 °C) harvested at ZT5; FLAG-M2 beads, 3x-FLAG peptide elution, then His-tag beads; LC-MS/MS; hits found in GFP-HFC or Col-0 controls excluded

B1: SUPPRESSOR OF PHYA-105 (SPA1) (protein, UniProt Q9SYX2 1-1029)
chain: MPVMERVAEETVATNNIQLKARVDDVPCNKLDARHNDMVIQSETANSDCPGSSAHRNVDLTKPPPPEEAAGAKLSVEELTLGNYRIVQGSNNTNVDSPRAGKFEHLYRLARGSAFRAGDGDLDSQPRDMDQMLSRIRQQLAGAPSERQNLKPFMSRRSDQNLEAFSERLRAAGENSIMNAPALISEGVQMKTPVSSSNFSQLLLKRAMKGKGVVGKNQETPPEFVSDQDLGSKEKKLDISKSPTPHDVLPLKSSPKGNGMVSHGDGNHSKSSIGISLREFLRSSYAKREKRHGLCLFRQLVELVDSAHSKRLFLLDLRPSLFTLVPSKKLRYIGNFGKNDLESDVDEDLNRRRPVVEESSSGGRDSKKRKMDLHLNSPGNQLQATSTGRPFKRKSPVIDLNMVDARNPDSCELQQQDYIKNLSVSSVSRKQSMSTWLEEQWYTCPEEINGEDIGEKSNIYALGVLLFELLCHCESGEMHAAMMADLRHRILPPTFLSKYPKEAGFCLWLLHPEPSSRPSARDILKSELICEDDSVKSTAAAEEISELLLHFLSSLEVQKKKKASKLLQDIQTLEDDIKEAERRYSSNVSLVRSHGAIEKRVQSSPLDEHCTTSSALFVPTANTDRLMSNIRQLEDAYFFMRSQINLSSSAATARSDKTLKDRDRCSENQNENQDMSTKGKSSDQLEVFFEGLCKFARYSKFETCGTIRSGDLLNSASVVCSLSFDPDEEHIAAAGISKKIKIFDFNAFMNESVGVHYPLVEMVNKSKLSCVCWNSYIKNYLASTDYDGVVQIWDAGTGQGFSQYTEHQKRAWSVDFSPSDPTKFVSGSDDCSVKLWSINEKRSLGTIWSPANVCCVQFSSYSNHLLAFGSADYKVYCYDLRYVKTPWCTLAGHEKAVSYVKFMDSETIVSASTDNSLKLWNLNKTNSSGLSPGACSLTYKGHTNQKNFVGLSVLDGYIACGSETNEVYSYYKSLPMPMTSYKFGSVDPISGNEYFDDNGQFVSSVCWRKKSNMLVAANSTGNMKLLKLV
binding: no binding (only tissue harvested at ZT5)
